No constants are given. Whether binding was seen depends on the method and setting. In cells and extracts the contact can be indirect. Some binding calls cover weakened binding; strength is not graded here.
Legend:
[1] = molecular target: NEDD8 ultimate buster-1 long (NUB1L) (UniProt Q9Y5A7); experiment: co-IP; HEK293T co-transfected with NUB1L and FAT10 (WT, D, single and multiple mutants); lysed one day later; HA-immunoprecipitation; immunoblot for FLAG-FAT10
[2] = molecular target: FAT10 wild type (His-3xFLAG-FAT10) (UniProt O15205); experiment: co-IP; HEK293T co-transfected with NUB1L and FAT10 expression plasmids; lysed one day later; FAT10 immunoprecipitated with monoclonal antibody 4F1 + protein A beads; immunoblot for NUB1L
[3] = molecular target: phospho-mimetic FAT10 (FAT10 D; S62D, S64D, T77E, S95D, S109D) (UniProt O15205); experiment: as above
RPN10 (human) = RPN10 (human) (UniProt P55036); experiment: co-IP; HEK293T co-transfected with RPN10 and FAT10 (WT or D); lysed one day later; immunoprecipitation with HA beads; immunoblot

Sequences of proteins named here, by UniProt entry; tags and fusion partners are left off. A change or cut given only in a name is not applied to a line headed by its entry.
UniProt Q9Y5A7: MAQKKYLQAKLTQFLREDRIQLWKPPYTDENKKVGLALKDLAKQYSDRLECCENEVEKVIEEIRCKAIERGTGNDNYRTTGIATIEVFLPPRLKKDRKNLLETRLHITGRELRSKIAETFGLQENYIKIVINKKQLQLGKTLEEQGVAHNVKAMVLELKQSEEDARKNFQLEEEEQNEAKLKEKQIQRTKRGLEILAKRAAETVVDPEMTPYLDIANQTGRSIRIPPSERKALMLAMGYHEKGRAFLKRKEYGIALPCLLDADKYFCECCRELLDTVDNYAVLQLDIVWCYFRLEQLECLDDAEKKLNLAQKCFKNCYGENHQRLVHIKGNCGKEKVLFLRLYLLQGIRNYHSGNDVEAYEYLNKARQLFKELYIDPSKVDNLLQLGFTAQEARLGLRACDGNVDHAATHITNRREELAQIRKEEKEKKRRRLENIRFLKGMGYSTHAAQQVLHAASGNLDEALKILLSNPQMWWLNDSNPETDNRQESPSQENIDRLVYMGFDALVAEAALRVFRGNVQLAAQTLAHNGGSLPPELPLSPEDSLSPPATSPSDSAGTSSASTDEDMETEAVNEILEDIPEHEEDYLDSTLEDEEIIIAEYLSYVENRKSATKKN
UniProt O15205: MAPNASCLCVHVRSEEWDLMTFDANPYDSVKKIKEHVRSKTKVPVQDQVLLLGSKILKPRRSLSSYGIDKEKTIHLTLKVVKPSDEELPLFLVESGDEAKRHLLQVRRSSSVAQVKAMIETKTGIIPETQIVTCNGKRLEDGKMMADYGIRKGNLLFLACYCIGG
UniProt P55036: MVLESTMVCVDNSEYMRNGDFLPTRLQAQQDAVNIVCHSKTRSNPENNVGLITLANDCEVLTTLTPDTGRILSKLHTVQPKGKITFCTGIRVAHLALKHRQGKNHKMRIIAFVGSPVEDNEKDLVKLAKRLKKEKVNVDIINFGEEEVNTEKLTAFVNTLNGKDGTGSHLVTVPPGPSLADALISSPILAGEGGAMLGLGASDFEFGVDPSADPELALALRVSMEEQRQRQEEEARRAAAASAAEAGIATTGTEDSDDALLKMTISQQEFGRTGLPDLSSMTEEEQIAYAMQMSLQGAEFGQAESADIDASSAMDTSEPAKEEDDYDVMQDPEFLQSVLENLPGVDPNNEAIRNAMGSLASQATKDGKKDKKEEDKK

Substance: FAT10 T77E (single phospho-mimetic mutant) (from UniProt O15205 1-165)
- binding [1]: binds weakly

Substance: NEDD8 ultimate buster-1 long (NUB1L) (from UniProt Q9Y5A7-1 1-615)
- binding [2]: binds
- binding [3]: no binding

Substance: phospho-mimetic FAT10 (FAT10 D; S62D, S64D, T77E, S95D, S109D) (from UniProt O15205 1-165)
- binding (RPN10 (human)): binds

Reference: paper PMC11673000 (2024)
